Drawing on US20040259848A1, this text covers binding for 1 molecule.

Results are given in words; binding and its absence hold for the method and conditions named. Some results given as binding are weak or reduced against the parent protein; the word gives no strength. Where a sequence is shown, tags or fusion partners need not be part of it.

The target in this test is Saccharomyces cerevisiae ketol-acid reductoisomerase, "short" form (construct no. 1), mature protein without the transit peptide, overproduced in E. coli (Saccharomyces cerevisiae) (UniProt P06168). As to the kind of experiment: gel filtration on Superdex 75; single peak estimated at 67 kDa (monomer about 40 kDa, dimer 80 kDa).

B1: Saccharomyces cerevisiae ketol-acid reductoisomerase, "short" form (construct no. 1), mature protein without the transit peptide, overproduced in E. coli (enzyme)
chain: LKQINFGGTVETVYERADWPREKLLDYFKNDTFALIGYGSQGYGQGLNLRDNGLNVIIGVRKDGASWKAAIEDGWVPGKNLFTVEDAIKRGSYVMNLLSDAAQSETWPAIKPLLTKGKTLYFSHGFSPVFKDLTHVEPPKDLDVILVAPKGSGRTVRSLFKEGRGINSSYAVWNDVTGKAHEKAQALAVAIGSGYVYQTTFEREVNSDLYGERGCLMGGIHGMFLAQYDVLRENGHSPSEAFNETVEEATQSLYPLIGKYGMDYMYDACSTTARRGALDWYPIFKNALKPVFQDLYESTKNGTETKRSLEFNSQPDYREKLEKELDTIRNMEIWKVGKEVRKLRPENQ
For the molecule B1, the binding entry is recorded as “binds”.
